According to PMC10605189:
No constants are given. Whether binding was seen depends on the method and setting. For some assays here: Binding seen in cells or lysates may run through a third protein. Some entries that bind do so weakly or less than the wild type.

Chains of the proteins cited; added tags and fusions are not shown.
UniProt P45973: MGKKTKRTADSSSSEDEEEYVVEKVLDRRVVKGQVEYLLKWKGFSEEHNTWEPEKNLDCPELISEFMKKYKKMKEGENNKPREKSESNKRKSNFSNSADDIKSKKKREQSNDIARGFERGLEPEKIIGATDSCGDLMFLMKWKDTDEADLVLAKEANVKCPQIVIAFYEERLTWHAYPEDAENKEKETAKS
UniProt Q06265: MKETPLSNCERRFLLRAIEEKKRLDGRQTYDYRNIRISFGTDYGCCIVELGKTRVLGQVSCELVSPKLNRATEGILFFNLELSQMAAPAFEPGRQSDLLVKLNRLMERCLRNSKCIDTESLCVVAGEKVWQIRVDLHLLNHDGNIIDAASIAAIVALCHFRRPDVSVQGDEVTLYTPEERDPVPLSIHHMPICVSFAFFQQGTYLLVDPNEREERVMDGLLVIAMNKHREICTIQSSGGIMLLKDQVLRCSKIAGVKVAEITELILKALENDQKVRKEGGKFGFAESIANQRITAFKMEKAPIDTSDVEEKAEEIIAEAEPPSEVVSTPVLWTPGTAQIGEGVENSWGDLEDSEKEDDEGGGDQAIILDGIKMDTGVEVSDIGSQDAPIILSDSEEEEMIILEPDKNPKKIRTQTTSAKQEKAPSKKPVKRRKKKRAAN

B1: endogenous SENP7L of MCF10-2A cells (deSUMOylase enzyme) (enzyme, UniProt Q9BQF6 1-1050)
chain: MDKRKLGRRPSSSEIITEGKRKKSSSDLSEIRKMLNAKPEDVHVQSPLSKFRSSERWTLPLQWERSLRNKVISLDHKNKKHIRGCPVTSKSSPERQLKVMLTNVLWTDLGRKFRKTLPRNDANLCDANKVQSDSLPSTSVDSLETCQKLEPLRQSLNLSERIPRVILTNVLGTELGRKYIRTPPVTEGSLSDTDNLQSEQLSSSSDGSLESYQNLNPHKSCYLSERGSQRSKTVDDNSAKQTAHNKEKRRKDDGISLLISDTQPEDLNSGSRGCDHLEQESRNKDVKYSDSKVELTLISRKTKRRLRNNLPDSQYCTSLDKSTEQTKKQEDDSTISTEFEKPSENYHQDPKLPEEITTKPTKSDFTKLSSLNSQELTLSNATKSASAGSTTETVENSNSIDIVGISSLVEKDENELNTIEKPILRGHNEGNQSLISAEPIVVSSDEEGPVEHKSSEILKLQSKQDRETTNENESTSESALLELPLITCESVQMSSELCPYNPVMENISSIMPSNEMDLQLDFIFTSVYIGKIKGASKGCVTITKKYIKIPFQVSLNEISLLVDTTHLKRFGLWKSKDDNHSKRSHAILFFWVSSDYLQEIQTQLEHSVLSQQSKSSEFIFLELHNPVSQREELKLKDIMTEISIISGELELSYPLSWVQAFPLFQNLSSKESSFIHYYCVSTCSFPAGVAVAEEMKLKSVSQPSNTDAAKPTYTFLQKQSSGCYSLSITSNPDEEWREVRHTGLVQKLIVYPPPPTKGGLGVTNEDLECLEEGEFLNDVIIDFYLKYLILEKASDELVERSHIFSSFFYKCLTRKENNLTEDNPNLSMAQRRHKRVRTWTRHINIFNKDYIFVPVNESSHWYLAVICFPWLEEAVYEDFPQTVSQQSQAQQSQNDNKTIDNDLRTTSTLSLSAEDSQSTESNMSVPKKMCKRPCILILDSLKAASVQNTVQNLREYLEVEWEVKLKTHRQFSKTNMVDLCPKVPKQDNSSDCGVYLLQYVESFFKDPIVNFELPIHLEKWFPRHVIKTKREDIRELILKLHLQQQKGSSS

How the values were obtained:
[1] = molecular target: endogenous chromatin-bound HP1α of MCF10-2A cells (human (endogenous in MCF10-2A)) (UniProt P45973); test: co-IP; chromatin-bound protein immunoprecipitation (CB/IP) with HP1α antibody and protein-A agarose; MCF10-2A cells synchronized by double thymidine block, collected in S/G2; lysis buffer with protease inhibitor and N-ethylmaleimide; Western blot
[2] = molecular target: endogenous chromatin-bound HP1α of MCF10-2A cells (human (endogenous in MCF10-2A)) (UniProt P45973); test: condition: only cells synchronized in G1/S or S phase; co-IP; chromatin-bound protein immunoprecipitation (CB/IP) with HP1α antibody and protein-A agarose; MCF10-2A cells synchronized by double thymidine block, collected in G1/S and S; lysis buffer with protease inhibitor and N-ethylmaleimide; Western blot
[3] = molecular target: unmodified HP1α recombinant protein (heterochromatin protein 1 alpha) (UniProt P45973); test: pull-down; cell-free bait-prey study: recombinant HP1α (unmodified or SUMOylated in vitro) immunoprecipitated, immobilized on agarose beads and incubated with recombinant Exosc9; eluate analysed by SDS-PAGE and Western blot, densitometry with ImageJ; both purified
[4] = molecular target: endogenous chromatin-bound HP1α of MCF10-2A cells (human (endogenous in MCF10-2A)) (UniProt P45973); test: co-IP; chromatin-bound protein immunoprecipitation (CB/IP) with HP1α antibody and protein-A agarose; MCF10-2A cells synchronized by double thymidine block, collected in G1/S and S; lysis buffer with protease inhibitor and N-ethylmaleimide; Western blot

Molecule | binding [1] | binding [2] | binding [3] | binding [4]
endogenous Exosc9 of MCF10-2A cells (from UniProt Q06265 1-439) | binds | no binding |  | 
recombinant Exosc9 protein (exosome component 9) (from UniProt Q06265 1-439) |  |  | binds | 
B1 | no binding (condition: cells synchronized in S/G2) |  |  | binds
